Values from PubChem BioAssay AID1224830 (NIAID, 2016).

Purpose: 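Host factors that control LPS-induced TNF expression in human macrophages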 (primary screen)
Cells: human THP-1 monocytic leukaemia cells, TNF dual-luciferase reporter clone, PMA-differentiated to macrophage-like cells
Knock-down reagent: siRNA pool against human genes, 50 nM
Duration: LPS for 4 h, given about 3 days after siRNA transfection
Conditions: bacterial LPS (TLR4 ligand), 10 ng/ml
Read-out: 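Ratio of firefly to renilla light, scaled to the plate median and expressed as a robust z-score per replicate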
Direction: TNF reporter robust z-score: higher = stronger TNF reporter response to LPS
Active means: 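Each well counts as active if its z-score is over 2.8 or under -1.5; controls are left without a call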
Here is one part, drawn at random, of about 18,000 deposited reagents. About 2,900 of them (16%) count as active. 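Calls are made per well; low scores hint the gene aids the LPS response, high scores that it dampens it.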 Entries without a mark were called inactive. Repeated entries: four replicate wells of each siRNA pool. No sequences are given here.

| gene | TNF reporter robust z-score |
| --- | --- |
| SCAMP5 | -0.82 |
| SCAMP5 | -0.42 |
| SCAMP5 | -0.52 |
| SCAMP5 | -0.25 |
| IFNAR1 (interferon alpha and beta receptor subunit 1) | -0.83 |
| IFNAR1 (interferon alpha and beta receptor subunit 1) | 0.55 |
| IFNAR1 (interferon alpha and beta receptor subunit 1) | 0.81 |
| IFNAR1 (interferon alpha and beta receptor subunit 1) | 1.02 |
| TPM3 (tropomyosin 3) | 0 |
| TPM3 (tropomyosin 3) | 0.74 |
| TPM3 (tropomyosin 3) | -0.35 |
| TPM3 (tropomyosin 3) | -0.04 |
| EML3 (EMAP like 3) | 1.04 |
| EML3 (EMAP like 3) | 0.34 |
| EML3 (EMAP like 3) | -0.56 |
| EML3 (EMAP like 3) | -0.55 |
| ZCCHC13 (zinc finger CCHC-type containing 13) | -0.38 |
| ZCCHC13 (zinc finger CCHC-type containing 13) | 0.44 |
| ZCCHC13 (zinc finger CCHC-type containing 13) | 0.32 |
| ZCCHC13 (zinc finger CCHC-type containing 13) | 0.87 |
| INCA1 (inhibitor of CDK, cyclin A1 interacting protein 1) | 1.15 |
| INCA1 (inhibitor of CDK, cyclin A1 interacting protein 1) | 5.81 (active) |
| INCA1 (inhibitor of CDK, cyclin A1 interacting protein 1) | 0.53 |
| ZNF624 (zinc finger protein 624) | -0.46 |
| ZNF624 (zinc finger protein 624) | 0.56 |
| ZNF624 (zinc finger protein 624) | -0.13 |
| ZNF624 (zinc finger protein 624) | 1 |
| MCMBP (minichromosome maintenance complex binding protein) | 0.48 |
| MCMBP (minichromosome maintenance complex binding protein) | 0.15 |
| MCMBP (minichromosome maintenance complex binding protein) | 1.25 |
| MCMBP (minichromosome maintenance complex binding protein) | 0.21 |
| HIC1 (HIC ZBTB transcriptional repressor 1) | -0.46 |
| HIC1 (HIC ZBTB transcriptional repressor 1) | -0.79 |
| HIC1 (HIC ZBTB transcriptional repressor 1) | -0.04 |
| HIC1 (HIC ZBTB transcriptional repressor 1) | -0.83 |
| GSG1 (germ cell associated 1) | -0.98 |
| GSG1 (germ cell associated 1) | -0.76 |
| GSG1 (germ cell associated 1) | -1.34 |
| GSG1 (germ cell associated 1) | -1.51 (active) |
| FLRT1 (fibronectin leucine rich transmembrane protein 1) | 1.1 |
| FLRT1 (fibronectin leucine rich transmembrane protein 1) | 0.82 |
| FLRT1 (fibronectin leucine rich transmembrane protein 1) | 0.52 |
| FLRT1 (fibronectin leucine rich transmembrane protein 1) | 0.43 |
| OR5AP2 (olfactory receptor family 5 subfamily AP member 2) | 0.61 |
| OR5AP2 (olfactory receptor family 5 subfamily AP member 2) | -0.31 |
| OR5AP2 (olfactory receptor family 5 subfamily AP member 2) | 0.7 |
| OR5AP2 (olfactory receptor family 5 subfamily AP member 2) | -0.45 |
| B3GALT6 (beta-1,3-galactosyltransferase 6) | 0.56 |
| B3GALT6 (beta-1,3-galactosyltransferase 6) | 1.01 |
| B3GALT6 (beta-1,3-galactosyltransferase 6) | -0.8 |
| B3GALT6 (beta-1,3-galactosyltransferase 6) | 1.88 |
| KLHL13 (kelch like family member 13) | 0.34 |
| KLHL13 (kelch like family member 13) | 0.58 |
| KLHL13 (kelch like family member 13) | -0.23 |
| KLHL13 (kelch like family member 13) | -0.96 |
| TRIM31 (tripartite motif containing 31) | 1.06 |
| TRIM31 (tripartite motif containing 31) | -0.05 |
| TRIM31 (tripartite motif containing 31) | 0.46 |
| TRIM31 (tripartite motif containing 31) | -0.62 |
| BCL2L2 (BCL2 like 2) | -0.38 |
| BCL2L2 (BCL2 like 2) | -0.36 |
| BCL2L2 (BCL2 like 2) | 1.01 |
| BCL2L2 (BCL2 like 2) | 0.51 |

Ordered by “TNF reporter robust z-score” (highest first): 10 of the entries above
| gene | TNF reporter robust z-score |
| --- | --- |
| EML3 (EMAP like 3) | 1.04 |
| IFNAR1 (interferon alpha and beta receptor subunit 1) | 1.02 |
| IFNAR1 (interferon alpha and beta receptor subunit 1) | 0.81 |
| TPM3 (tropomyosin 3) | 0.74 |
| IFNAR1 (interferon alpha and beta receptor subunit 1) | 0.55 |
| TPM3 (tropomyosin 3) | 0 |
| TPM3 (tropomyosin 3) | -0.04 |
| SCAMP5 | -0.25 |
| TPM3 (tropomyosin 3) | -0.35 |
| IFNAR1 (interferon alpha and beta receptor subunit 1) | -0.83 |

Continued.
| gene | TNF reporter robust z-score |
| --- | --- |
| AGGF1 (angiogenic factor with G-patch and FHA domains 1) | 1.52 |
| AGGF1 (angiogenic factor with G-patch and FHA domains 1) | 0.38 |
| AGGF1 (angiogenic factor with G-patch and FHA domains 1) | 0.29 |
| AGGF1 (angiogenic factor with G-patch and FHA domains 1) | 2.56 |
| TOM1 (target of myb1 membrane trafficking protein) | 2.38 |
| TOM1 (target of myb1 membrane trafficking protein) | 0.47 |
| TOM1 (target of myb1 membrane trafficking protein) | 1.9 |
| TOM1 (target of myb1 membrane trafficking protein) | 1.05 |
| UBXN4 (UBX domain protein 4) | -0.96 |
| UBXN4 (UBX domain protein 4) | -0.56 |
| UBXN4 (UBX domain protein 4) | -0.6 |
| UBXN4 (UBX domain protein 4) | -0.47 |
| PLAA (phospholipase A2 activating protein) | 1.17 |
| PLAA (phospholipase A2 activating protein) | 0.52 |
| PLAA (phospholipase A2 activating protein) | 1.18 |
| PLAA (phospholipase A2 activating protein) | -0.01 |
| PDGFRB (platelet derived growth factor receptor beta) | -1.25 |
| PDGFRB (platelet derived growth factor receptor beta) | -1.34 |
| PDGFRB (platelet derived growth factor receptor beta) | -1.29 |
| PDGFRB (platelet derived growth factor receptor beta) | 0.45 |
| CLIP4 (CAP-Gly domain containing linker protein family member 4) | -0.75 |
| CLIP4 (CAP-Gly domain containing linker protein family member 4) | 0.2 |
| CLIP4 (CAP-Gly domain containing linker protein family member 4) | 1.74 |
| CLIP4 (CAP-Gly domain containing linker protein family member 4) | 0.56 |
| RABEP1 (rabaptin, RAB GTPase binding effector protein 1) | 1.74 |
| RABEP1 (rabaptin, RAB GTPase binding effector protein 1) | 1.9 |
| RABEP1 (rabaptin, RAB GTPase binding effector protein 1) | 1.77 |
| RABEP1 (rabaptin, RAB GTPase binding effector protein 1) | 1.75 |
| NDUFB4 (NADH:ubiquinone oxidoreductase subunit B4) | 0.61 |
| NDUFB4 (NADH:ubiquinone oxidoreductase subunit B4) | -0.93 |
| NDUFB4 (NADH:ubiquinone oxidoreductase subunit B4) | -0.92 |
| NDUFB4 (NADH:ubiquinone oxidoreductase subunit B4) | 0 |
| ADAM18 (ADAM metallopeptidase domain 18) | 0.64 |
| ADAM18 (ADAM metallopeptidase domain 18) | 0.11 |
| ADAM18 (ADAM metallopeptidase domain 18) | -0.25 |
| ADAM18 (ADAM metallopeptidase domain 18) | -0.23 |
| DEFB103A (defensin beta 103A) | -0.88 |
| DEFB103A (defensin beta 103A) | 0.59 |
| DEFB103A (defensin beta 103A) | 0.23 |
| DEFB103A (defensin beta 103A) | 0.42 |
| MAT1A (methionine adenosyltransferase 1A) | 0.07 |
| MAT1A (methionine adenosyltransferase 1A) | 1.35 |
| MAT1A (methionine adenosyltransferase 1A) | -0.26 |
| MAT1A (methionine adenosyltransferase 1A) | 1.92 |
| URB2 (URB2 ribosome biogenesis homolog) | 0.94 |
| URB2 (URB2 ribosome biogenesis homolog) | 3.22 (active) |
| URB2 (URB2 ribosome biogenesis homolog) | 3.28 (active) |
| URB2 (URB2 ribosome biogenesis homolog) | 3.8 (active) |
